Results are given in words; binding and its absence hold for the method and conditions named. Some entries that bind do so weakly or less than the wild type.
What was measured:
[1] = target: 人源PCSK9 (前蛋白转化酶枯草杆菌蛋白酶Kexin 9型) (human) (UniProt Q8NBP7); assay: SPR
[2] = target: 人源PCSK9 (前蛋白转化酶枯草杆菌蛋白酶Kexin 9型) (human) (UniProt Q8NBP7); assay: binding and blocking ELISA; the mouse parent is the reference of the comparison

Amino acid sequences for entries named in this document (tags omitted). Residues count along the entry.
UniProt Q8NBP7, residues 31-692: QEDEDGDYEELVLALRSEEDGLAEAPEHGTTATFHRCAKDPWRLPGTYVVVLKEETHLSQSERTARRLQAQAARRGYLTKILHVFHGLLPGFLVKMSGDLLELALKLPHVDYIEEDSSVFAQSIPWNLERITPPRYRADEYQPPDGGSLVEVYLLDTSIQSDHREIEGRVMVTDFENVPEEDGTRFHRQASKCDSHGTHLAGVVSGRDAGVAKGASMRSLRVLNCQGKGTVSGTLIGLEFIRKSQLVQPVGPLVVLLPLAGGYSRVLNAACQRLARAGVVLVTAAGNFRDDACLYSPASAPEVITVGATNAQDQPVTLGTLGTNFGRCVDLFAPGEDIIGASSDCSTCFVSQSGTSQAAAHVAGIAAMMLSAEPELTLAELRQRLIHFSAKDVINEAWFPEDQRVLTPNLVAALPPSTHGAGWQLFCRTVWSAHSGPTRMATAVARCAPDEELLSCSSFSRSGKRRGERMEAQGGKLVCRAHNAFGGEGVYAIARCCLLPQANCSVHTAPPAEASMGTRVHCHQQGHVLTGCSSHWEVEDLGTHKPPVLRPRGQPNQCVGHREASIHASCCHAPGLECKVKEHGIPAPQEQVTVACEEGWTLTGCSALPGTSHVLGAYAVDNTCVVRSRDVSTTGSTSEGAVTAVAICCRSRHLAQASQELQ

binding [1] | binding [2] | Binder
binds | – | 2.12.12.4-v2-z4-uIgG4k (antibody, V domains shown) VH: QVQLVQSGAEVKKPGSSVKVSCEASGYTFTNYVMHWVRQAPGQGLEWMGYINPYNDYIKYNEKFKGKATITADKSTSTAYMELSSLRSEDTAVYYCGRQRYYGYRPYYAMDYWGQGTLVTVSS VL: DIVLTQSPASLAVSPGQRATITCRASESVEGYGNVFMHWYQQKPGQPPKLLIYLASNLESGVPARFSGSGSGTDFTLTINPVEADDTANYYCQQNNKDPWTFGGGTKVEIK
– | binds | 2.12.12.4 (小鼠单克隆抗体) (antibody, V domains shown) VH: EVQLQQSGPELVKPGASVKMSCEASGYTFTNYVMHWVKQKPGQGLEWIGYINPYNDYIKYNEKFKGKATLTSDKSSSTTYLEVSSLTSEDSAVYYCGRQRYYGYRPYYAMDYWGQGTSVTVSS VL: NIVLTQSPASLAVSLGQRATISCRASESVDGYGNVFMHWYQQKPGQPPKLLIYLASNLESGVPDRFSGSGSRTDFTLTIDPVEADDAATYYCQQNNKDPWTFGGGTKLEIK

— CN107840892A
